{"source": "patent EP2063887B1", "about": "“NEW SMALL MOLECULE INHIBITORS OF MDM2 AND THE USES THEREOF” (priority 2006, dated 2008)", "system": "HCT116 p53KO", "test": "Cell growth inhibition (WST-8), HCT116 p53KO;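 further: cells in 96-well plates exposed to compound for 4 days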", "type": "cell-based", "conditions": "read-out: HCT116 p53KO IC50; tested form: HCl", "note": "The source holds more than one record for some entries. Only these are listed. An entry can have further records. Values given together do not match, cause unknown; dose, time, organism, isomer or construct need not be as stated for each record.", "data": [{"smiles": "CC(C)(C)C[C@H]1N(S(=O)(=O)C(F)(F)F)[C@@H](C(=O)NCCN2CCOCC2)[C@H](c2ccc(F)c(Cl)c2)[C@@]12C(=O)Nc1cc(Cl)c(F)cc12", "values": [{"measurement": "IC50", "value": "11.6 µM, 5.45 µM, 8.9 µM"}]}]}
